The supplement of paper PMC12067093, “Discovery and optimisation of a covalent ligand for TRIM25 and its application to targeted protein ubiquitination” (Chemical Science, 2025)
Some of the results follow.

Each target was assayed with CC1Cc2ccccc2N1C(=O)C1CCCN(C1)C(=O)CCl (mixture of isomers) [TRIM25 ligand 11 (diastereomer mixture)] (assay: probe-labelled cysteine peptide fold change vs DMSO (competition) (log2 fold change); higher = less target engagement (more negative = stronger competition)). Conditions: 10 µM; THP-1; incubation time: 4 h.
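Also: competitive chemoproteomic profiling in live THP-1 cells with an iodoacetamide desthiobiotin (IA-DTB) probe, comparing probe-labelled peptide intensities in compound-treated cells against DMSO-treated controls.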

| Target | probe-labelled cysteine peptide fold change |
| --- | --- |
| DHPS_P49366_177_IGNLLVPNENYCK (UniProt P49366) | 0.0193 |
| DNM1L_O00429_367_ICYIFHETFGR (UniProt O00429) | 0.0757 |
| DNAJC13_O75165_2110_RADTVGLACEAINR (UniProt O75165) | -0.112 |
| DIAPH1_O60610_964_LQFSEQVENIKPEIVSVTAACEELR (UniProt O60610) | 0.176 |
| DNASE1L1_P49184_187_DVILLGDFNADCASLTK (UniProt P49184) | 0.161 |
| DIS3_Q9Y2L1_549_RIDMVPELLSSNLCSLK (UniProt Q9Y2L1) | -0.166 |
| DNAJA2_O60884_308_VIEPGCVR (UniProt O60884) | 0.103 |
| DNAJC7_Q99615_164_KVVFCMDR (UniProt Q99615) | -0.158 |
| DIDO1_Q9BTC0_261+273_AAQDIKDEEPGDLGRPKPECEGYDPNALYCICR (UniProt Q9BTC0) | -0.11 |
| DKC1_O60832_74_TTHYTPLACGSNPLKR (UniProt O60832) | -0.0788 |
| DLGAP5_Q15398_381_TIQQDSNKLPCPLGPLTVWHEEHVLNK (UniProt Q15398) | -0.231 |
| DHX36_Q9H2U1_611_VQPGHCYHLYNGLR (UniProt Q9H2U1) | 0.145 |
| DHX15_O43143_226_FEDCSSAK (UniProt O43143) | -0.14 |
| DHX9_Q08211_1099_LQISHEAAACITGLR (UniProt Q08211) | 0.0435 |
| DIAPH3_Q9NSV4_464_LIDECVSQIVLHR (UniProt Q9NSV4) | 0.0814 |
| DNM2_P50570-3_427_CVDLVVSELATVIKK (UniProt P50570) | -0.178 |
| DIS3_Q9Y2L1_562_LAFSCIWEMNHNAEILK (UniProt Q9Y2L1) | 0.165 |
| DICER1_Q9UPY3_801_CFGILTAKPIPQIPHFPVYTR (UniProt Q9UPY3) | -0.0745 |

| Target | probe-labelled cysteine peptide fold change |
| --- | --- |
| DNAJA1_P31689_261_RGEDLFMCMDIQLVEALCGFQK (UniProt P31689) | 0.0434 |
| DKC1_O60832_74_TTHYTPLACGSNPLK (UniProt O60832) | 0.00323 |
| DNAJC7_Q99615_7_AAAAECDVVMAATEPELLDDQEAKR (UniProt Q99615) | -0.0553 |
| DNM2_P50570-3_427_CVDLVVSELATVIK (UniProt P50570) | -0.0402 |
| DHX29_Q7Z478_1245_LACIVETAQGK (UniProt Q7Z478) | 0.132 |
| DNAJC10_Q8IXB1_301_LSGMLDGLVNVGWMDCATQDNLCK (UniProt Q8IXB1) | 0.117 |
| DNAJB1_P25685_267_EALCGCTVNVPTLDGR (UniProt P25685) | 0.0532 |
| DIS3L2_Q8IYB7_739_QADHCNDR (UniProt Q8IYB7) | 0.0961 |
| DHX30_Q7L2E3_673_GEPGGILCFLPGWQEIK (UniProt Q7L2E3) | 0.411 |
| DNAJB11_Q9UBS4_196_FQMTQEVVCDECPNVK (UniProt Q9UBS4) | -0.00478 |
| DIP2A_Q14689_543_ALTQACGYSEAETLTNVLDFKR (UniProt Q14689) | 0.205 |
| DISC1_Q9NRI5_844_EAAASCMTAGVHEAQA (UniProt Q9NRI5) | -0.074 |
| DNAJA3_Q96EY1_253+256_VQHCHYCGGSGMETINTGPFVMR (UniProt Q96EY1) | -0.169 |
| DNM1L_O00429_300_DCLPELK (UniProt O00429) | -0.02 |
| DHRS7_Q9Y394_233_TELATYPGIIVSNICPGPVQSNIVENSLAGEVTK (UniProt Q9Y394) | -0.0824 |
| DNAJC7_Q99615_317_LDDAIEDCTNAVK (UniProt Q99615) | 0.0496 |
| DHX38_Q92620_27_GDTSEDASIHRLEGTDLDCQVGGLICK (UniProt Q92620) | 0.00226 |
| DHX30_Q7L2E3_606_YFGGCPVIK (UniProt Q7L2E3) | 0.136 |
